Measured values from patent US10471073B2, “Methods of reducing mammographic breast density and/or breast cancer risk” (Havah Therapeutics Pty Ltd., priority 2016, dated 2019).
For at least one compound, name, drawing or mass did not settle the structure.

Assays:
[1] = test system: androgen receptor (AR); test: IHC of high MBD breast tissue explants with columnar cell change: androgen receptor; format: cell-based, human; conditions: tissue samples of both patients
Experimental: (§1) The samples are transported on ice for Prostate-specific antigen (PSA) determination. […] PSA is detectable in greater than 90% of the nipple fluid aspirations of normal women. […] This area was removed and transported on ice to the laboratory for explant culture. […] A representative piece of each tissue sample was immediately fixed in 4% formalin in phosphate-buffered saline (PBS) overnight at 4° C., followed by dehydration using an automatic tissue processor (Sakura Tissue-Tek VIP, USA) and paraffin wax embedding. A haematoxylin and eosin (H&E) stained section was used to assess tissue pathology. Additional consecutive sections were subjected to antigen retrieval to assess androgen receptor levels by immunohistochemistry (IHC). The remaining fresh tissue was cut into small (˜3×3×1 mm) pieces, and placed as triplicates on 1 cm^3 gelatin sponges (Spongostan; Johnson & Johnson, Skipton, UK) that were pre-soaked and then half submerged in treatment media containing 10% by volume dextran-coated charcoal stripped fetal calf serum (DCC-FCS) (SAFC biosciences, Kansas, USA) in 24-well tissue culture plates (BD Biosciences, NJ, USA). The tissues samples of both patients were cultured for 24 hours in a vehicle of 0.1% by volume of ethanol and subjected to the treatments set forth in Table 17. […]

[2] = test system: prostate specific antigen (PSA); test: IHC of high MBD breast tissue explants with columnar cell change: PSA; format: cell-based, human; conditions: tissue samples of both patients
Experimental: as §1

SMILES: C[C@]12CC[C@@H]3c4ccc(O)cc4CC[C@H]3[C@@H]1CC[C@@H]2O [Estradiol, estradiol]
- effect on AR levels [1]: slightly reduced
- effect on PSA levels [2]: significantly reduced
